According to PubChem BioAssay AID1347075 (National Center for Advancing Translational Sciences (NCATS), 2019):
The campaign covered roughly 400,000 compounds. About 5,500 (1.4%) were called active. Inconclusive means that the source gave no clear call. Such entries were picked first, then a sample of the others. Calls follow the shape of the dose curve; as a rule, active = well fitted cell-killing curve with a large enough effect; inconclusive = small, poorly fitted or top-dose-only effect, or effect the other way; inactive = flat fitted curve, though single readings scatter. Potencies of inconclusive entries are doubtful fits and often do not repeat. A structure can be active in one record and inactive in another.

Assay: qHTS assay for MDR1-selective chemotherapeutics: Primary screen using the parental adenocarcinoma cell KB-3-1; also: nearly all actives have a fitted effect of over 60% in size
Conditions: KB-3-1 viability, CellTiter-Glo ATP luminescence, 72 h; activity change, negative = cytotoxic: at 46.1 µM (top of the series)
Summary of the method: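 Viability of parental KB-3-1 cells, measured by CellTiter-Glo luminescence, followed a 72 h incubation at 37 °C with pinned compounds in phenol-red-free DMEM containing 10% FBS.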
% is scaled to controls: 0 for no effect and ±100 for the full control effect; potency is read from the fitted curve at half-maximal effect.

SMILES	Potency	activity change, negative = cytotoxic
O=C1C=CC(=O)N1CCNc1ncc(C(F)(F)F)cc1Cl	inconclusive: 20.6 µM [cytotoxic, single point]	–
O=C(Nc1cccc(S(=O)(=O)N2CCOCC2)c1)c1cc([N+](=O)[O-])ccc1N1CCOCC1	inactive	–
CC(=O)O[C@H]1C[C@@]2(O)[C@@H](OC(=O)c3ccccc3)C3[C@@](C)([C@@H](O)C[C@H]4OC[C@@]34OC(C)=O)[C@@H](O)[C@H](OC(C)=O)C(=C1C)C2(C)C (stereo not given in full)	inconclusive: 25.9 µM [cytotoxic, single point]	–
Cc1ccc(C(=O)Nc2ccc(Cl)cn2)cc1	inconclusive: 29.1 µM [cytotoxic, single point]	–
CC(C)c1ccc(CNc2nc(-c3ccco3)nn2C(=O)c2ccc([N+](=O)[O-])cc2)cc1	inactive	–
COc1ccc(/C=C/C(=O)NCCSCc2ccco2)cc1	inactive	–
CSCCC(NS(=O)(=O)c1ccc2c(c1)oc(=O)n2C)C(=O)Nc1ccc(Cl)cc1 (stereo not given)	inactive	–
CCOc1ccccc1NC(=O)c1sc2ncn(CC(=O)N3CCOCC3)c(=O)c2c1C	inconclusive: 0.0103 µM [rising, full curve]	–
COc1cccc(NC(=O)Nc2ccc3c(c2)OCO3)c1	inactive	–
CCOC(=O)c1cc(OC(C)=O)c2ccc(OC)c(OC)c2c1	inconclusive: 9.2 µM [cytotoxic, partial curve, poor fit]	–
Cc1nc(SCC(=O)Nc2ccc(CN3CCCC3)cc2)c2c(C)c(C)sc2n1	inconclusive: 29.1 µM [cytotoxic, single point]	–
O=C(Nc1ccc2c(c1)OCO2)c1cc(-c2ccncc2)nc2ccccc12	inconclusive: 29.1 µM [cytotoxic, single point]	–
O=C(NC1CCCC1)C1C(c2ccccc2)=Nc2ccccc2N1C(=O)c1cc(Cl)cc(Cl)c1 (stereo not given)	inconclusive: 3.66 µM [cytotoxic, partial curve, poor fit]	–
CCC(=O)c1ccc(OCc2ccc(C(=O)c3ccccc3)cc2)cc1	inconclusive: 29.1 µM [cytotoxic, single point]	–
CCn1c2ccccc2nc2cc3c(cc21)c(Cl)c(=O)c1ccccc13	inconclusive: 32.6 µM [cytotoxic, partial curve, poor fit]	–
COc1ccc(C2NC(=S)NC3=C2CCc2ccccc23)cc1OC (stereo not given)	inconclusive: 11.6 µM [cytotoxic, partial curve, poor fit]	–
O=C(c1ccc2c(c1)OCO2)N(Cc1ccco1)C1(C(=O)NC2CCCCC2)CCCCC1	inconclusive: 32.6 µM [cytotoxic, single point]	–
C/C(=N/NS(=O)(=O)c1ccccc1)c1ccc(Cl)cc1	inconclusive: 0.206 µM [rising, full curve]	–
CC(=O)CSc1ncnc2sc3c(c12)CCC(C)C3 (stereo not given)	inconclusive: 29.1 µM [cytotoxic, single point]	–
COc1ccc(NC2=CC(=O)CC(c3ccccc3)C2)c(OC)c1 (stereo not given)	inconclusive: 6.51 µM [cytotoxic, partial curve, poor fit]	–
CC(=O)C[C@H]1c2cc(F)cc(F)c2S(=O)(=O)N1C1CCN(Cc2ccccc2)CC1	inconclusive: 25.9 µM [cytotoxic, single point]	–
CCOC(=O)c1nnn(-c2nc(N3CCCC3)nc(N3CCCC3)n2)c1-c1ccccc1	inconclusive: 18.4 µM [cytotoxic, single point]	–
C[C@H](c1ccccc1)N1C[C@@H](COCc2ccccc2)Oc2cc(N3CCC[C@H]3CO)ccc2S1(=O)=O	inconclusive: 29.1 µM [cytotoxic, single point]	–
c1c2c(cc3sc(N4CCOCC4)nc13)OCCO2	inconclusive: 29.1 µM [cytotoxic, single point]	–

SMILES	Potency	activity change, negative = cytotoxic
O=C(/C=C/NNC(=O)c1ccccc1)c1ccccc1	inconclusive: 25.9 µM [cytotoxic, single point]	–
Nc1nc(C(c2ccccc2)c2ccccc2)cs1	inactive	–
O=C(COc1cccnc1[N+](=O)[O-])Nc1ncc(Cl)cc1Cl	inactive	–
Cc1ccccc1CC(=O)Nc1ccc2c(c1)c(=O)n(C)n2-c1cccs1	inconclusive: 29.1 µM [cytotoxic, single point]	–
O=C(Cc1ccc(Cl)cc1)Nc1cccc(S(=O)(=O)Nc2ccccc2F)c1	inactive	–
CN(C(=O)CSc1nc2ccc(NC(=O)c3ccccc3)cc2s1)c1ccccc1	inconclusive: 29.1 µM [cytotoxic, single point]	–
CCOC(=O)c1[nH]c2ccc(F)cc2c1NC(=O)C(C)N1CCc2cc(OC)c(OC)cc2C1 (stereo not given)	active: 16.4 µM	–
O=S(=O)(Nc1nc2ccccc2nc1N1CCc2ccccc2C1)c1ccc(Br)cc1	inconclusive: 23.1 µM [cytotoxic, partial curve, poor fit]	–
C/C(=N\NC(=O)C1(C)NC(C)(C)Cc2ccccc21)c1ccccc1 (stereo not given)	inactive	–
O=c1[nH]cnc2c1[nH]c(=S)n2C1O[C@@H](CO)[C@H](O)[C@@H]1O (stereo not given in full)	inconclusive: 9.2 µM [rising, partial curve, poor fit]	–
Cc1nc2ccccc2nc1SCC(=O)c1ccccc1	inconclusive: 23.1 µM [cytotoxic, single point]	–
COc1ccc2cc(C(=O)NCc3ccccc3CN3CCCC3)ccc2c1	inconclusive: 29.1 µM [cytotoxic, single point]	–
COCCNC(=O)C1(C)CCN(C(=O)c2ccc3c(c2)C(C)(C)CCC3(C)C)C1 (stereo not given)	inactive	–
COc1cc(CN(C(=O)c2ccc(C)cc2)c2ccccn2)cc(OC)c1OC	inconclusive: 29.1 µM [cytotoxic, single point]	–
Cc1ccc(-n2nc(C)c3c(C(=O)Nc4ccc(C)cc4Cl)cc(C)nc32)cc1	inactive	–
COC(=O)N1CCc2c(sc(NC(=O)C3=COCCO3)c2C#N)C1	active: 2.31 µM	–
O=[N+]([O-])c1cc([N+](=O)[O-])c2nonc2c1Nc1ccccc1O	inconclusive: 20.6 µM [cytotoxic, single point]	–
O=C(CN1C(=O)c2ccccc2S1(=O)=O)c1ccc2c(c1)OCCCO2	inactive	–
Nc1ccc2oc(-c3ccccc3Cl)nc2c1	inconclusive: 25.9 µM [rising, partial curve, poor fit]	–
O=C1CCCCC1C1(O)C(=O)Nc2ccccc21 (stereo not given)	inactive	–
O=C(Cn1ncc(Cl)c(Cl)c1=O)c1ccc(Cl)cc1	inconclusive: 5.8 µM [cytotoxic, full curve]	–
O=C(NCCc1ccccc1)C1(c2ccccc2)CCCC1	inactive	–
Cc1ccc(S(=O)(=O)N(C)c2ccc(OCC(=O)Nc3nc4ccccc4s3)cc2)cc1	inconclusive: 29.1 µM [cytotoxic, single point]	–
COc1ccc(OC)c(NS(=O)(=O)c2ccc(SC)cc2)c1	active: 7.31 µM	–

SMILES	Potency	activity change, negative = cytotoxic
CCOc1ccc(CCNC(=O)CSc2cc(=O)n(CC)c3ccccc23)cc1OCC	inactive	–
CCC(C)NC(=O)c1c(N)n(/N=C/c2cccnc2)c2nc3ccccc3nc12 (stereo not given)	inconclusive: 18.4 µM [cytotoxic, single point]	–
COCc1c(C(=O)Nc2nnc(C3CC3)s2)oc2ccccc12	inconclusive: 10.3 µM [rising, single point]	–
NC(=O)c1c(N)sc(=S)n1-c1ccccc1	inactive	–
O=C(Nc1cccc(C(F)(F)F)c1)C1CCN(S(=O)(=O)c2cccc3nsnc23)CC1	inactive	–
O=C(CSc1ccc(Cl)cc1)Nc1cccc(-c2nc3ncccc3o2)c1	inconclusive: 29.1 µM [cytotoxic, single point]	–
COc1cccc(Nc2nc(C(N)Cc3ccc(C(F)(F)F)cc3)cs2)n1 (stereo not given)	inactive	–
COc1ccc(C(=O)Nc2ccccc2C(=O)Nc2cc(C)ccn2)cc1	inconclusive: 25.9 µM [cytotoxic, partial curve, poor fit]	–
CSc1ccc(S(=O)(=O)Nc2ccc(F)cc2)cc1	inconclusive: 4.11 µM [cytotoxic, full curve]	–
CCOc1ccc(N2C(=O)CN(CC(=O)OC)C2=S)cc1	inactive	–
CCOc1ccccc1C(=O)Nc1ccc(-n2nncc2C(C)(C)C)cc1	inactive	–
O=C(NNc1c2ccccc2nc2ccccc12)c1ccc(Cl)cc1	inconclusive: 18.4 µM [cytotoxic, single point]	–
Cc1ccccc1-c1noc(CSc2nc(-c3ccc(F)cc3)cc(=O)[nH]2)n1	inactive	–
Cc1sc2ncn3ncnc3c2c1C	inactive	–
CCN(CC)c1ccc(NC2=C(Cl)C(=O)c3ccccc3C2=O)cc1	inconclusive: 29.1 µM [cytotoxic, single point]	–
C=CCn1c(-c2ccc(S(=O)(=O)N3CCOCC3)cc2)csc1=Nc1ccccc1	inconclusive: 29.1 µM [cytotoxic, single point]	–
CCOc1ccc(S(=O)(=O)NCc2ccccn2)cc1NC(=O)c1ccccc1F	inconclusive: 4.61 µM [cytotoxic, partial curve, poor fit]	–
CCc1ccccc1NS(=O)(=O)c1ccc2[nH]cc(C(=O)NC3CCCC3)c(=O)c2c1	active: 14.6 µM	–
O=C(Cc1ccccc1)Nc1cccc(N2CCCC2)c1	–	inconclusive: -1.25%
CC(NC(=O)C12CC3CC(CC(C3)C1)C2)c1ccc(F)cc1 (stereo not given)	inactive	–
COc1ccc(C2/C=C\CN(C(=O)Nc3ccc(C(F)(F)F)cc3)CC(=O)N2Cc2ccc(F)cc2)cc1 (stereo not given)	inconclusive: 20.6 µM [cytotoxic, single point]	–
C/C(N)=C(/C#N)C(=O)COC(=O)c1cc(-c2cccc(Br)c2)nc2ccccc12	inconclusive: 5.8 µM [cytotoxic, partial curve, poor fit]	–

Part of the list above in order of count of non-hydrogen atoms, largest number first.
SMILES	Potency	activity change, negative = cytotoxic
COc1ccc(C2/C=C\CN(C(=O)Nc3ccc(C(F)(F)F)cc3)CC(=O)N2Cc2ccc(F)cc2)cc1 (stereo not given)	inconclusive: 20.6 µM [cytotoxic, single point]	–
CCOc1ccc(CCNC(=O)CSc2cc(=O)n(CC)c3ccccc23)cc1OCC	inactive	–
O=C(Nc1cccc(C(F)(F)F)c1)C1CCN(S(=O)(=O)c2cccc3nsnc23)CC1	inactive	–
CCOc1ccc(S(=O)(=O)NCc2ccccn2)cc1NC(=O)c1ccccc1F	inconclusive: 4.61 µM [cytotoxic, partial curve, poor fit]	–
CCC(C)NC(=O)c1c(N)n(/N=C/c2cccnc2)c2nc3ccccc3nc12 (stereo not given)	inconclusive: 18.4 µM [cytotoxic, single point]	–
Cc1ccccc1-c1noc(CSc2nc(-c3ccc(F)cc3)cc(=O)[nH]2)n1	inactive	–
COc1cccc(Nc2nc(C(N)Cc3ccc(C(F)(F)F)cc3)cs2)n1 (stereo not given)	inactive	–
O=C(NNc1c2ccccc2nc2ccccc12)c1ccc(Cl)cc1	inconclusive: 18.4 µM [cytotoxic, single point]	–
COCc1c(C(=O)Nc2nnc(C3CC3)s2)oc2ccccc12	inconclusive: 10.3 µM [rising, single point]	–
CC(NC(=O)C12CC3CC(CC(C3)C1)C2)c1ccc(F)cc1 (stereo not given)	inactive	–
CCOc1ccc(N2C(=O)CN(CC(=O)OC)C2=S)cc1	inactive	–
CSc1ccc(S(=O)(=O)Nc2ccc(F)cc2)cc1	inconclusive: 4.11 µM [cytotoxic, full curve]	–
NC(=O)c1c(N)sc(=S)n1-c1ccccc1	inactive	–
